Values from PubChem BioAssay AID504764 (Drosophila RNAi Screening Center, 2011)

- Test: 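Knock-downs that raise or lower a Notch target reporter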 (primary screen)
- System: Drosophila Kc167 cells
- Reagent: long dsRNA against Drosophila genes
- Time to read-out: about 5 days (4 days dsRNA, then 24 h after transfection)
- Treatment: transfection of constitutively active membrane-tethered Notch lacking the extracellular domain, read 24 h later
- Measured: 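Light from a Notch-responsive E(spl)m3 luciferase reporter under active Notch, with control-promoter and no-Notch reporter wells to normalise; raw counts from paired wells a and b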
- Reading the numbers: induced reporter light, run 1, well a and induced reporter light, run 1, well b: higher = more light from the Notch target reporter with active Notch; control promoter light, run 1, well a and control promoter light, run 1, well b: higher = more light from the viral control promoter (cell number, transfection, viability); uninduced reporter light, run 1, well a: higher = more light from the Notch target reporter without active Notch
- Active means: 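Wells with low control signal or poorly matching duplicates excluded; duplicates averaged; per source plate, z beyond ±2 for induced/control log2 ratio or beyond ±1.8 for induced/uninduced marks a hit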
- Meaning of the calls: active = modifier hit (raised or lowered Notch signal); inactive = not a hit
In all, the deposit lists about 22,000 reagents; this is a random part of those with a known target gene and a result. In the full data, 403 (1.9%) are marked active. 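Unnormalised raw counts per well; ratio z-scores behind the hit calls and whether each hit raises or lowers signal are not deposited.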 The record does not give: the amount of reagent.

Gene | DRSC id | induced reporter light, run 1, well a | induced reporter light, run 1, well b | control promoter light, run 1, well a | control promoter light, run 1, well b | uninduced reporter light, run 1, well a | Call
sv | DRSC17221 | 1.24e5 | 1.24e5 | 2.22e5 | 2.57e5 | 10715 | inactive
Hsl | DRSC06028 | 57600 | 58055 | 90125 | 93520 | 3745 | inactive
mst | DRSC20582 | 92845 | 74630 | 85445 | 1.23e5 | 10415 | inactive
Vajk1 | DRSC01882 | 1.81e5 | 1.76e5 | 1.65e5 | 1.65e5 | 13805 | inactive
Usp30 | DRSC18265 | 1.48e5 | 1.55e5 | 3.05e5 | 2.47e5 | 11755 | inactive
CG7065 | DRSC18420 | 1.37e5 | 1.09e5 | 1.50e5 | 1.51e5 | 15210 | inactive
LRP1 | DRSC07238 | 2.01e5 | 1.82e5 | 2.52e5 | 2.06e5 | 17415 | inactive
eEF1alpha1 | DRSC07421 | 14305 | 12925 | 24340 | 19025 | 1570 | inactive
l(3)L1231 | DRSC16323 | 1.58e5 | 1.34e5 | 1.14e5 | 99030 | 13110 | inactive
Son | DRSC16400 | 77805 | 89340 | 80170 | 56920 | 5340 | inactive
Cep135 | DRSC09345 | 1.51e5 | 1.75e5 | 2.16e5 | 1.90e5 | 15480 | inactive
Cep135 | DRSC10244 | 1.37e5 | 1.60e5 | 83420 | 77370 | 8542 | inactive
CG11693 | DRSC14353 | 95715 | 1.06e5 | 85225 | 82655 | 7445 | inactive
Ir7g | DRSC18008 | 1.93e5 | 1.62e5 | 2.85e5 | 2.86e5 | 10915 | inactive
IntS10 | DRSC08173 | 1.87e5 | 1.63e5 | 2.62e5 | 2.73e5 | 12125 | inactive
Nna1 | DRSC19404 | 1.12e5 | 98350 | 1.24e5 | 1.57e5 | 7232 | inactive
alpha-Est10 | DRSC12613 | 70090 | 79600 | 84365 | 61115 | 6665 | inactive
CG13607 | DRSC14610 | 1.65e5 | 1.53e5 | 2.25e5 | 2.09e5 | 12555 | inactive
CG31344 | DRSC16069 | 2.21e5 | 2.36e5 | 2.12e5 | 2.32e5 | 20275 | inactive
CG32137 | DRSC10271 | 1.82e5 | 1.50e5 | 1.94e5 | 1.90e5 | 12805 | inactive
CG32137 | DRSC10272 | 2.01e5 | 1.81e5 | 1.68e5 | 1.33e5 | 20270 | inactive
CG8441 | DRSC07180 | 92455 | 98465 | 2.00e5 | 2.31e5 | 9810 | inactive
mora | DRSC16594 | 1.70e5 | 1.59e5 | 2.01e5 | 1.99e5 | 13150 | inactive
CG13998 | DRSC02330 | 2.12e5 | 1.92e5 | 3.02e5 | 2.93e5 | 15715 | inactive
CG15306 | DRSC17993 | 1.00e5 | 87450 | 1.19e5 | 1.11e5 | 5260 | inactive
CG15306 | DRSC18240 | 65675 | 58230 | 63320 | 70115 | 5070 | inactive
Nmda1 | DRSC07479 | 1.61e5 | 1.46e5 | 1.33e5 | 1.26e5 | 12475 | inactive
Oatp58Da | DRSC04365 | 52420 | 33620 | 41350 | 62780 | 1810 | inactive
Cpr92A | DRSC16000 | 1.88e5 | 1.55e5 | 2.00e5 | 2.01e5 | 15315 | inactive
Hmt-1 | DRSC15555 | 2.39e5 | 3.09e5 | 4.26e5 | 4.58e5 | 19775 | inactive
CG12699 | DRSC06162 | 99100 | 1.22e5 | 2.22e5 | 2.25e5 | 10425 | inactive
Or56a | DRSC07495 | 35245 | 34805 | 37855 | 36330 | 3195 | inactive
resilin | DRSC05627 | 95995 | 1.07e5 | 1.17e5 | 1.25e5 | 8300 | inactive
resilin | DRSC06595 | 1.16e5 | 1.10e5 | 93550 | 97065 | 5995 | inactive
CG15471 | DRSC18054 | 59660 | 67370 | 79565 | 72155 | 5610 | active
CG5953 | DRSC01546 | 54855 | 63040 | 72290 | 69495 | 4510 | inactive
CG5953 | DRSC02914 | 8635 | 8420 | 12635 | 10275 | 3080 | inactive
CG10184 | DRSC14204 | 1.88e5 | 1.83e5 | 2.49e5 | 2.49e5 | 16692 | inactive
CG10301 | DRSC14226 | 1.98e5 | 1.67e5 | 2.53e5 | 2.32e5 | 14010 | inactive
Cyp4s3 | DRSC20241 | 1.25e5 | 95825 | 1.33e5 | 1.06e5 | 16655 | inactive
tea | DRSC06110 | 1.34e5 | 1.14e5 | 1.15e5 | 1.01e5 | 11220 | inactive
tea | DRSC06236 | 1.97e5 | 1.47e5 | 1.76e5 | 1.70e5 | 13635 | inactive
CG11694 | DRSC14354 | 1.36e5 | 1.11e5 | 1.60e5 | 1.03e5 | 7410 | inactive
ldd | DRSC20558 | 71455 | 78645 | 90865 | 1.24e5 | 10565 | inactive
ox | DRSC07520 | 76100 | 81185 | 1.27e5 | 1.09e5 | 7678 | inactive
Rif1 | DRSC05593 | 94255 | 1.76e5 | 2.06e5 | 2.53e5 | 17685 | inactive
CG7135 | DRSC20026 | 99610 | 88680 | 1.19e5 | 1.06e5 | 9955 | inactive
Ccdc114 | DRSC15025 | 2.19e5 | 2.31e5 | 2.06e5 | 2.18e5 | 16640 | inactive
Cad86C | DRSC15587 | 79130 | 90700 | 92930 | 73890 | 7095 | inactive
Cad86C | DRSC15611 | 99705 | 95675 | 93820 | 95055 | 7210 | inactive

Just “control promoter light, run 1, well a” (3 entries from above):
CG32137 [DRSC10271] = 1.94e5
CG32137 [DRSC10272] = 1.68e5
CG8441 [DRSC07180] = 2.00e5
